The exact form of at least one protein or probe is not confirmed. At least one verdict rests on a figure or table, not on a statement of the authors.

Chains of the proteins cited; added tags and fusions are not shown. Chains listed by the source or under a name are the forms on record and can include a tag or linker.
Dr-tRNA-LC-FL (DDX1, RTCB, FAM98B, CGI99, ASW) (Danio rerio), one chain, as listed by the source, chain 1 of 4: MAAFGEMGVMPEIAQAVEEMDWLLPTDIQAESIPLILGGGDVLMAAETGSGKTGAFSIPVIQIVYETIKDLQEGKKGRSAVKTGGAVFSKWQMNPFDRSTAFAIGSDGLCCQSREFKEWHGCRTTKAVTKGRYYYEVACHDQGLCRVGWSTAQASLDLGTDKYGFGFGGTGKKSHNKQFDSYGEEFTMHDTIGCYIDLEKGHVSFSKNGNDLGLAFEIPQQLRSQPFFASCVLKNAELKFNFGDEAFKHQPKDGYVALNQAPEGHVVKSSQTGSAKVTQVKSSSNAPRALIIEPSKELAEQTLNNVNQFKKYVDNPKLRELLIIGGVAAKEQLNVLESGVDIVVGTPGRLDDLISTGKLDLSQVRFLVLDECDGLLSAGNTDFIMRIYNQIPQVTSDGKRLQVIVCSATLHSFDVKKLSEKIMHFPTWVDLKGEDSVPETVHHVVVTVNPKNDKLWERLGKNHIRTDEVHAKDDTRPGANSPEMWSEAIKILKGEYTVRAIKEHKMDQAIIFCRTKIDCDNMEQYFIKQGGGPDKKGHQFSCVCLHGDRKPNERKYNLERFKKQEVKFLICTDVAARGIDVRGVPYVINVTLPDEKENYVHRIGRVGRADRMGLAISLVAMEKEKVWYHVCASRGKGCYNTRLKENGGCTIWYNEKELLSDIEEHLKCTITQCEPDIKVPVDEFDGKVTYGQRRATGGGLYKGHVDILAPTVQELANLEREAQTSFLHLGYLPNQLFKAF
Dr-tRNA-LC-FL (DDX1, RTCB, FAM98B, CGI99, ASW) (Danio rerio), one chain, as listed by the source, chain 4 of 4: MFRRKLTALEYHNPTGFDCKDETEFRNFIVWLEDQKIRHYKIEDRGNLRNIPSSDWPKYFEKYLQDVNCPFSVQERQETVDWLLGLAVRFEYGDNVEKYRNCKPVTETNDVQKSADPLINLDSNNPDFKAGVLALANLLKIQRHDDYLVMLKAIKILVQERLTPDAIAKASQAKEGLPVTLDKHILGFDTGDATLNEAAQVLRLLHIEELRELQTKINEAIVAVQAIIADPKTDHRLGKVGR
Dr-tRNA-LC-FL (DDX1, RTCB, FAM98B, CGI99, ASW) (Danio rerio), one chain, as listed by the source, chain 3 of 4: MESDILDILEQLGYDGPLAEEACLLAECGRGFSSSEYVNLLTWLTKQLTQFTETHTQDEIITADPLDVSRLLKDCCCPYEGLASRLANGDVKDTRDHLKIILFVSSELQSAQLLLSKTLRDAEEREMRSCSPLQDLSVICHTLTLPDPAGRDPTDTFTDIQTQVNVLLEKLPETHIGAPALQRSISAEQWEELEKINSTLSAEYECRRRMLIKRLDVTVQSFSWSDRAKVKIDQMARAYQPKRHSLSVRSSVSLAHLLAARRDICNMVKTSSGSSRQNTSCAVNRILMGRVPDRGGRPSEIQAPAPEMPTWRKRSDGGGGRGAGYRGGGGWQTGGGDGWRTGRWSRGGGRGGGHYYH
Dr-tRNA-LC-TR (DDX1 C-term, RTCB, FAM98B, CGI99, ASW N-term) (Danio rerio), one chain, as listed by the source, chain 1 of 4: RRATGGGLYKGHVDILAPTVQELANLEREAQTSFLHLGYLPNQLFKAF
Dr-tRNA-LC-FL (DDX1, RTCB, FAM98B, CGI99, ASW) (Danio rerio), one chain, as listed by the source, chain 2 of 4: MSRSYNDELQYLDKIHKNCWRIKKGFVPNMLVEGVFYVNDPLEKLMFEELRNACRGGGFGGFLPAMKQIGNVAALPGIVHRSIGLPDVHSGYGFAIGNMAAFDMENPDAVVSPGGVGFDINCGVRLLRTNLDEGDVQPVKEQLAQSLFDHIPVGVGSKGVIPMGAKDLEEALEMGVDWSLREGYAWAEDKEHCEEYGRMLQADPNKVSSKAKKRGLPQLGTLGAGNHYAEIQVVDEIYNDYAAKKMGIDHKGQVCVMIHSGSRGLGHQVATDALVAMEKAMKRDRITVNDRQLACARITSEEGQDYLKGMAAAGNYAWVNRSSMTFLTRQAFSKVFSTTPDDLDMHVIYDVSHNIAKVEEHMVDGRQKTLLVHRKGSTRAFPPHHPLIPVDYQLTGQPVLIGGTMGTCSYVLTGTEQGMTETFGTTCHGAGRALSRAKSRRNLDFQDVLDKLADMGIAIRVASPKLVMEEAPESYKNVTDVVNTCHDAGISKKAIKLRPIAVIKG

Data set [1] concerns Dr-tRNA-LC-FL (DDX1, RTCB, FAM98B, CGI99, ASW) (Danio rerio). Briefly: MST. As to conditions: no GTP, no Mn2+ (buffer A), almost identical binding, Kd only in figure; MST: 25 mM Hepes pH 7.5, 150 mM NaCl, 1 mM DTT, with or without 2 mM GTP and 2 mM MnCl2, 20 nM Cy5-tRNA, temperature not stated; recombinant protein; protein details: His6-MBP on DDX1, removed by TEV; label: Cy5.

The subject of data set [2] is Dr-tRNA-LC-TR (DDX1 C-term, RTCB, FAM98B, CGI99, ASW N-term) (Danio rerio). Briefly: MST. As to conditions: no GTP, no Mn2+ (buffer A), almost identical binding, Kd only in figure; MST: 25 mM Hepes pH 7.5, 150 mM NaCl, 1 mM DTT, with or without 2 mM GTP and 2 mM MnCl2, 20 nM Cy5-tRNA, temperature not stated; recombinant protein; protein details: His6-RTCB; label: Cy5.

On to “GGCUCCAGUGGCGCAAUCGGUUAGCGCGCGGUACUUAUAAUGCCGAGGUUGUGAGUUCGAGCCUCACCUGGAGCACCA [tRNAIle]”, for which the binding result in data set [1] and in data set [2] was “binds” each time.

The values are drawn from PMC12135372.
